Reference: article PMC8384837
Residue numbers refer to the chain shown, from its start. The list shows a part of the results. For some assays here: At the low end of the ranking the order means little. For some assays here: Construct or isoform of the protein are uncertain.

Legend:
Conditions in all cases: yeast three-hybrid, YBZ-1, SC-Leu-His + 0.5 mM 3-AT, 4 days
[1] = target: T1, PUM1 PUF domain R1-QFR R2-VFQ R7-NPG S863Q + R864F + Q867R + N899V + Y900F + S1079N + N1080P + E1083G (UniProt Q14671)
T1 sequence: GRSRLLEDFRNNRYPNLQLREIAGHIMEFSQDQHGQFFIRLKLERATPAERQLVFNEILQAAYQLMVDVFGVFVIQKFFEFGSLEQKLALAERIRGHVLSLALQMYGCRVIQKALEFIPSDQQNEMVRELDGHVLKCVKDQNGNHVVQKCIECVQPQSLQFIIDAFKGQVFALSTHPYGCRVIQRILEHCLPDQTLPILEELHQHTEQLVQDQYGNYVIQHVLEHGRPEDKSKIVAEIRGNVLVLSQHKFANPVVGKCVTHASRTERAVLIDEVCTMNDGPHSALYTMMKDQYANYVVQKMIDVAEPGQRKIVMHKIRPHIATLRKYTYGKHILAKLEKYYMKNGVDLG

[2] = target: T2, PUM1 PUF domain R3-THE R4-TFR C935T + R936H + Q939E + N971T + H972F + Q975R (UniProt Q14671)
T2 sequence: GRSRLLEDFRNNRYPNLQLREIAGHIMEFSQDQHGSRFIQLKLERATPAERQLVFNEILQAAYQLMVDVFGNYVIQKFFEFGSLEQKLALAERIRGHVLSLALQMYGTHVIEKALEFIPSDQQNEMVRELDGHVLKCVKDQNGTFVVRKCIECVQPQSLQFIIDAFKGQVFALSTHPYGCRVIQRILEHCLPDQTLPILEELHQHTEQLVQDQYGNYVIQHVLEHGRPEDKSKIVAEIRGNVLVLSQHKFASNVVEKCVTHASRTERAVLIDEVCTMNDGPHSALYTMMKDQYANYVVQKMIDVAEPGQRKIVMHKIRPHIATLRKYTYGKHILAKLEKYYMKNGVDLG

[3] = target: T3, PUM1 PUF domain R3-THE R4-TFR R7-NPG C935T + R936H + Q939E + N971T + H972F + Q975R + S1079N + N1080P + E1083G (Homo sapiens) (UniProt Q14671)
T3 sequence: T2 sequence with S252N, N253P, E256G

[4] = target: T4, PUM1 PUF domain R5-PHQ R6-SWD C1007P + R1008H + N1043S + Y1044W + Q1047D (UniProt Q14671)
T4 sequence: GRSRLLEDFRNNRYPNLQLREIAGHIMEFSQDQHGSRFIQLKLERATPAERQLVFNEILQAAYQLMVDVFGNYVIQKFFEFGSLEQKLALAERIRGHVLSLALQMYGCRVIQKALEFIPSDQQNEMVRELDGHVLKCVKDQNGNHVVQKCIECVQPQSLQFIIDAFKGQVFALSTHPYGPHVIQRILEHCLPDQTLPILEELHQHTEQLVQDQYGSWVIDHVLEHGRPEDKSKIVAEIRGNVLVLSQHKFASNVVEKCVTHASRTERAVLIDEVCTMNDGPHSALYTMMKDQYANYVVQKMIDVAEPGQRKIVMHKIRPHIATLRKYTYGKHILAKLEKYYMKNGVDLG

[5] = target: T5, PUM1 PUF domain R6-SWD R7-NPG N1043S + Y1044W + Q1047D + S1079N + N1080P + E1083G (Homo sapiens) (UniProt Q14671)
T5 sequence: T4 sequence with P180C, H181R, S252N, N253P, E256G

[6] = target: T6, PUM1 PUF domain R6-SWD R7-NPG N1043S + Y1044W + Q1047D + S1079N + N1080P + E1083G (UniProt Q14671)
T6 sequence: T4 sequence with P180C, H181R, S252N, N253P, E256G

Question: Which binding signal (log2 enrichment (interaction score)) [1] does the source give for “GGCUAGAACUAGUGGAUCCCCCGGCGCCCGGCGGCUCGAGCCCGGGUAAGUGGUCACAGUCUGCAUGCCGCCGGGCGCCAUGCCUGCAGGUCGACUCUAGAAAACAUG” here?
Answer: Its binding signal (log2 enrichment (interaction score)) is -4.83.

Question: And the binding signal (log2 enrichment (interaction score)) [2]?
Answer: The binding signal (log2 enrichment (interaction score)) was -6.74.

Question: Which binding signal (log2 enrichment (interaction score)) [1] does the source give for “GGCUAGAACUAGUGGAUCCCCCGGCGCCCGGCGGCUCGAGCCCGGGUAAGUUUACAGAGUCUGCAUGCCGCCGGGCGCCAUGCCUGCAGGUCGACUCUAGAAAACAUG” here?
Answer: Its binding signal (log2 enrichment (interaction score)) is -6.9.

Question: And the binding signal (log2 enrichment (interaction score)) [2]?
Answer: The binding signal (log2 enrichment (interaction score)) was -7.

Question: And the binding signal (log2 enrichment (interaction score)) [3]?
Answer: Its binding signal (log2 enrichment (interaction score)) is -1.72.

Question: And the binding signal (log2 enrichment (interaction score)) [4]?
Answer: The binding signal (log2 enrichment (interaction score)) was -7.35.

Question: And the binding signal (log2 enrichment (interaction score)) [5]?
Answer: Its binding signal (log2 enrichment (interaction score)) is -1.32.

Question: How did the binding signal (log2 enrichment (interaction score)) [1] turn out when “GGCUAGAACUAGUGGAUCCCCCGGCGCCCGGCGGCUCGAGCCCGGGUAAGUAUAUGGGGUCUGCAUGCCGCCGGGCGCCAUGCCUGCAGGUCGACUCUAGAAAACAUG” was run?
Answer: Its binding signal (log2 enrichment (interaction score)) is -6.08.

Question: And the binding signal (log2 enrichment (interaction score)) [2]?
Answer: Its binding signal (log2 enrichment (interaction score)) is -7.11.

Question: What about the binding signal (log2 enrichment (interaction score)) [3] of the same sequence?
Answer: The binding signal (log2 enrichment (interaction score)) was -1.37.

Question: For “GGCUAGAACUAGUGGAUCCCCCGGCGCCCGGCGGCUCGAGCCCGGGUAAGUGGCAUAAGUCUGCAUGCCGCCGGGCGCCAUGCCUGCAGGUCGACUCUAGAAAACAUG”, which binding signal (log2 enrichment (interaction score)) [1] is on record?
Answer: The binding signal (log2 enrichment (interaction score)) was -4.3.

Question: What about the binding signal (log2 enrichment (interaction score)) [2] of the same sequence?
Answer: The binding signal (log2 enrichment (interaction score)) was -5.7.

Question: And the binding signal (log2 enrichment (interaction score)) [3]?
Answer: The binding signal (log2 enrichment (interaction score)) was under -1.82.

Question: And the binding signal (log2 enrichment (interaction score)) [4]?
Answer: Its binding signal (log2 enrichment (interaction score)) is -7.84.

Question: And the binding signal (log2 enrichment (interaction score)) [6]?
Answer: The binding signal (log2 enrichment (interaction score)) was -2.02.

Question: “GGCUAGAACUAGUGGAUCCCCCGGCGCCCGGCGGCUCGAGCCCGGGUAAGGCUACGACGUCUGCAUGCCGCCGGGCGCCAUGCCUGCAGGUCGACUCUAGAAAACAUG” was tested. Which binding signal (log2 enrichment (interaction score)) [1] did it give?
Answer: The binding signal (log2 enrichment (interaction score)) was -5.67.

Question: What about the binding signal (log2 enrichment (interaction score)) [2] of the same sequence?
Answer: Its binding signal (log2 enrichment (interaction score)) is -7.52.
